Reference: publication PMC7819943, “Rice protein-binding microarrays: a tool to detect cis-acting elements near promoter regions in rice”
The list shows a part of the results.

Each sequence was assayed against T1, OsSMF1 (Oryza sativa, UniProt Q6ZLB0 1-436) (assay: protein-binding microarray (RPBM); PBS, 2% BSA, 51.3 ng/ul salmon testes DNA, 50 uM zinc acetate, 200 nM TF, 25 C, 1 h; high values mean tight binding). Conditions: protein: recombinant; tags: N-terminal polyhistidine and DsRed monomer fusion (pET32a); chain copies: 2; label: CyDye5-dUTP incorporated in the synthesized complementary strand; 3' TTTTT single-stranded linker to array surface; dsDNA, one strand shown.
T1 sequence: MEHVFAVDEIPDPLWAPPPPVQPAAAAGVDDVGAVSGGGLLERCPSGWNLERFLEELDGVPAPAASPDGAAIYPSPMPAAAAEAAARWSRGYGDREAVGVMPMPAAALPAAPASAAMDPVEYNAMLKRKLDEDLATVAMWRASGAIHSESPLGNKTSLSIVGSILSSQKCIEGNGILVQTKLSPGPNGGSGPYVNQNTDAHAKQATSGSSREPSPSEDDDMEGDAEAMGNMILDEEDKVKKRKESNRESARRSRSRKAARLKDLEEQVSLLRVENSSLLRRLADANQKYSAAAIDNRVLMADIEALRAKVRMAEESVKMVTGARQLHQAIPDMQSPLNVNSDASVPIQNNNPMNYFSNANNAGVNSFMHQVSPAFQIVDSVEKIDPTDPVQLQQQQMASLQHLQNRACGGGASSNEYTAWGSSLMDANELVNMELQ
Summary of the method: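 Binding signal is defined as the fluorescence intensity of each feature in arbitrary units, read on an Axon 4000B scanner. Transcription factors with N-terminal polyhistidine and DsRed fusions came from E. coli BL21-CodonPlus and were purified on Ni–NTA. They were incubated at 200 nM for 1 h at 25 °C on a custom Agilent array that had been made double-stranded with Cy5-dUTP, with 50 µM zinc acetate present, and the array was washed.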

Q: With “CTGATCGCTTCTGCGTCACTATTTCTTCTGAAACAATAGCCGGAGTCACCTAGTGCAG” as the sequence, how does the binding signal read?
A: The binding signal was 3250 fluorescence intensity (a.u.).

Q: For “TGCCGCCTCCTGATCCGCATCAGCCGGAGCTCGCCGGCCACGGAGTCACCTAGTGCAG”, which binding signal is on record?
A: Its binding signal is 3520 fluorescence intensity (a.u.).

Q: For “CACTTACACTTTCATCATCACTTTCTGTAAAAGGGAGTGACGGAGTCACCTAGTGCAG”, which binding signal is on record?
A: Its binding signal is 23400 fluorescence intensity (a.u.).

Q: Which binding signal does the source give for “CTCCCCGGCCCAAAATGCTCGTGGAGTCGTTGTGTTCATGCGGAGTCACCTAGTGCAG” here?
A: Its binding signal is 3610 fluorescence intensity (a.u.).

Q: “ACACCGATGCGGTGTCGATGTGGCGGTACCCGACCTCCAGCGGAGTCACCTAGTGCAG” was tested. Which binding signal did it give?
A: The binding signal was 24300 fluorescence intensity (a.u.).

Q: For “GGAAGTTCACACGTTGACGTCAAGGAGCATGTGTACTACTCGGAGTCACCTAGTGCAG”, which binding signal is on record?
A: The binding signal was 5530 fluorescence intensity (a.u.).

Q: For “AAATGCAATTTGACAACTATAAGCCGGCAAGAAAATATTACGGAGTCACCTAGTGCAG”, which binding signal is on record?
A: Its binding signal is 3750 fluorescence intensity (a.u.).

Q: With “CACGCTGACTCATTAGACACGTAGGATAAAACCGGGATCGCGGAGTCACCTAGTGCAG” as the sequence, how does the binding signal read?
A: The binding signal was 9820 fluorescence intensity (a.u.).

Q: For “GTGTCTAGTACTAGTTTCTTAATGATGTGGAGTTTATGAACGGAGTCACCTAGTGCAG”, which binding signal is on record?
A: Its binding signal is 5900 fluorescence intensity (a.u.).

Q: “CTTAGTACAAATTTGTGGAGTAGCTCTGCCAACTCCGCTCCGGAGTCACCTAGTGCAG” was tested. Which binding signal did it give?
A: The binding signal was 3240 fluorescence intensity (a.u.).

Q: How did the binding signal turn out when “TCACAATCTATAACACGTGGATCCTCATGTGTCTATGATACGGAGTCACCTAGTGCAG” was run?
A: The binding signal was 8100 fluorescence intensity (a.u.).

Q: With “ATACTTTCGGATGTCGGCAATATCATACCAATTGCCAAGACGGAGTCACCTAGTGCAG” as the sequence, how does the binding signal read?
A: Its binding signal is 22400 fluorescence intensity (a.u.).

Q: Which binding signal does the source give for “ATGCACATATCATACGTGTATATGTGTGTGTGAGTGTATTCGGAGTCACCTAGTGCAG” here?
A: The binding signal was 5760 fluorescence intensity (a.u.).

Q: Which binding signal does the source give for “CTTATCTAATGTTTGCTGAGGTGTCGAAAGCTTTGCATTTCGGAGTCACCTAGTGCAG” here?
A: Its binding signal is 6170 fluorescence intensity (a.u.).

Q: For “AGCAGGGGAGGTGATGTCAGCGTTATAATTGATCTCCCGTCGGAGTCACCTAGTGCAG”, which binding signal is on record?
A: The binding signal was 10600 fluorescence intensity (a.u.).

Q: With “CCTCCATCCTTGTGACTCTCTCCTCTCCATCTCCAAGACTCGGAGTCACCTAGTGCAG” as the sequence, how does the binding signal read?
A: The binding signal was 4200 fluorescence intensity (a.u.).

Q: How did the binding signal turn out when “AGCCTAGTTTCTTCCTTTGTCCACGTGTAATATTTGAAGTCGGAGTCACCTAGTGCAG” was run?
A: Its binding signal is 22100 fluorescence intensity (a.u.).

Q: “GGCTTGGTGCGTGGAGCATAGGGAAGACGACGTGGAGACTCGGAGTCACCTAGTGCAG” was tested. Which binding signal did it give?
A: The binding signal was 4900 fluorescence intensity (a.u.).

Q: Which binding signal does the source give for “TGCCTATAAGAGTATGATATACGTGTGTGTTGTGAGCGCCCGGAGTCACCTAGTGCAG” here?
A: Its binding signal is 4190 fluorescence intensity (a.u.).

Q: How did the binding signal turn out when “TCAGAATTCAGCAACTGCATTTGTCAGTCAAACACTGAGGCGGAGTCACCTAGTGCAG” was run?
A: The binding signal was 27400 fluorescence intensity (a.u.).

Q: “ACGAAACCGCACAAAAGCCGGTGAATTTTCCCGTAATTTGCGGAGTCACCTAGTGCAG” was tested. Which binding signal did it give?
A: Its binding signal is 8780 fluorescence intensity (a.u.).

Q: “AAATTCTGACAAAATTGTAACCTTAAAACTGTCAGATTTTCGGAGTCACCTAGTGCAG” was tested. Which binding signal did it give?
A: The binding signal was 7020 fluorescence intensity (a.u.).

Q: How did the binding signal turn out when “TAGCCGCCGCATTTTACTACTGCCCACCACCACCACACCACGGAGTCACCTAGTGCAG” was run?
A: The binding signal was 3380 fluorescence intensity (a.u.).

Q: Which binding signal does the source give for “GCCTGATTTACGTTGTTCGTATTGAACGGTACCGAATCAACGGAGTCACCTAGTGCAG” here?
A: Its binding signal is 3550 fluorescence intensity (a.u.).

Q: “CACTGTTTGATGCTAAAACATATTACGTGTGCCGTTCATACGGAGTCACCTAGTGCAG” was tested. Which binding signal did it give?
A: Its binding signal is 3580 fluorescence intensity (a.u.).

Q: With “AATAGTTGGCCACTGTGCGTGCGTGGCTGCGTGTGCTTGCCGGAGTCACCTAGTGCAG” as the sequence, how does the binding signal read?
A: The binding signal was 8850 fluorescence intensity (a.u.).

Q: How did the binding signal turn out when “TGGGCTGTATGGGTCGCGCTGGATTTTAGTATCAGTGGATCGGAGTCACCTAGTGCAG” was run?
A: Its binding signal is 3630 fluorescence intensity (a.u.).

Q: Which binding signal does the source give for “TAGCCATCGCCACCACCACCGCCACCGCCACCGCCACGCTCGGAGTCACCTAGTGCAG” here?
A: The binding signal was 3840 fluorescence intensity (a.u.).

Q: “TGCAGTGACGGGTTGCTGTCGTTCCAGCTGCAGCTGGCCCCGGAGTCACCTAGTGCAG” was tested. Which binding signal did it give?
A: Its binding signal is 3160 fluorescence intensity (a.u.).

Q: “TGAGATATATATGATCACGTCACAGGGCGGCACTGGTTCTCGGAGTCACCTAGTGCAG” was tested. Which binding signal did it give?
A: Its binding signal is 3430 fluorescence intensity (a.u.).

Q: Which binding signal does the source give for “TCCATCCTGCCCACCACGCGGCATATGGTGGGCCTGGCGACGGAGTCACCTAGTGCAG” here?
A: The binding signal was 3430 fluorescence intensity (a.u.).

Q: “GGCTGACGCCGTCGTCGTCGTCGTCCGCCCGCACAATCTCCGGAGTCACCTAGTGCAG” was tested. Which binding signal did it give?
A: The binding signal was 3310 fluorescence intensity (a.u.).

Q: “CCACCCACGGAGCCAGCTCACTACCACCGTTTGTCGCCTCCGGAGTCACCTAGTGCAG” was tested. Which binding signal did it give?
A: The binding signal was 4360 fluorescence intensity (a.u.).

Q: With “TTTCTCCCATAAAGCCACATCATCTTACTTTTATATTTGACGGAGTCACCTAGTGCAG” as the sequence, how does the binding signal read?
A: Its binding signal is 3960 fluorescence intensity (a.u.).

Q: How did the binding signal turn out when “ACTCTACGATATTATATTTTAGATGATGTGTCATGCTTGCCGGAGTCACCTAGTGCAG” was run?
A: The binding signal was 15900 fluorescence intensity (a.u.).

Q: How did the binding signal turn out when “TCGGCGAAGTCCTCCTCGTTGTAGACGACGGTGAGGAAGACGGAGTCACCTAGTGCAG” was run?
A: Its binding signal is 11600 fluorescence intensity (a.u.).

Q: “TGCATCCAGTGTTGAACTTTGGGTAGCTATGTTTTCCCATCGGAGTCACCTAGTGCAG” was tested. Which binding signal did it give?
A: The binding signal was 3450 fluorescence intensity (a.u.).

Q: Which binding signal does the source give for “GCCTGTTGAGTTTGGATCACTGCCAGCACTTCAGGATGCTCGGAGTCACCTAGTGCAG” here?
A: Its binding signal is 5300 fluorescence intensity (a.u.).

Q: “CTTTAAACGTTGGCCTCTTGTTAGTCGATGCAATCATCTTCGGAGTCACCTAGTGCAG” was tested. Which binding signal did it give?
A: Its binding signal is 3450 fluorescence intensity (a.u.).

Q: How did the binding signal turn out when “CTGCCTAGGGTAGGCTCCGCAGTGGGCATCAGCGCCGCGTCGGAGTCACCTAGTGCAG” was run?
A: The binding signal was 3830 fluorescence intensity (a.u.).

Q: With “GGTCCCATGTCACCTACAGGTGAGGTCCAGGACCTTCGCACGGAGTCACCTAGTGCAG” as the sequence, how does the binding signal read?
A: The binding signal was 3540 fluorescence intensity (a.u.).

Q: For “ACAGATACAATGAGCGAGCGTTTGGTGTAATATGTGACAGCGGAGTCACCTAGTGCAG”, which binding signal is on record?
A: Its binding signal is 43600 fluorescence intensity (a.u.).
